# Measurements reported in PubChem BioAssay AID1259308 (NCATS, 2017).
# Aim: 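Candidate targets for better recombinant protein yield in mammalian cells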 (primary screen)
# Cell system: human HEK293 embryonic kidney cells stably expressing firefly luciferase (HEK-CMV-Luc2-Hygro)
# Reagents: single siRNA against human genes, 0.8 pmol siRNA per well
# Time to read-out: 72 h
# Read-out: 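Reporter luminescence and viable-cell signal on separate replicate plates, given as percent of non-targeting control and median/MAD z-scores, plus per-cell luciferase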
# Reading the numbers: total luciferase, z-score and total luciferase, % of control: higher = more reporter protein produced
# Call rule: 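An siRNA counts as active if its total luciferase robust z-score exceeds 3; genes with two or more such siRNAs out of three were retested with fresh siRNAs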
# Calls: active = raised luciferase; inactive = no rise
# The deposit covers about 59,000 reagents; below is a random part of them. About 1,510 of all reagents (2.6%) were called active. 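Calls use total luciferase alone and ignore viability, so some active siRNAs may act by altering cell number.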 Entries without a mark were called inactive. The numbers tell different reagents against one gene apart. Further read-outs or replicates are left out here.
gene,reagent,"total luciferase, z-score","total luciferase, % of control"
STXBP5-AS1,1,-0.165,78.6
STXBP5-AS1,2,1.53,112
STXBP5-AS1,3,0.174,85.3
LY75,1,0.633,94.5
LY75,2,0.104,83.9
LY75,3,0.0609,83.1
RNASE11,1,1.64,114
RNASE11,2,-0.247,77
RNASE11,3,0.617,94.2
DHFR2,1,-1.96,43
DHFR2,2,-1.41,53.9
DHFR2,3,0.384,89.5
FRMPD4,1,-0.921,63.6
FRMPD4,2,-2,42
FRMPD4,3,0.0271,82.4
ZCCHC8,1,0.568,93.2
ZCCHC8,2,0.0961,83.8
ZCCHC8,3,-1.63,49.5
IL32,1,0.495,91.7
IL32,2,-1.71,47.8
IL32,3,0.0452,82.8
ADGRF3,1,-1.37,54.7
ADGRF3,2,1.38,109
ADGRF3,3,-0.145,79
SCGB3A1,1,-0.981,62.4
SCGB3A1,2,-0.746,67
SCGB3A1,3,1.11,104
GRB2,1,2,122
GRB2,2,-1.81,45.8
GRB2,3,-1.48,52.5
SF3A3,1,1.72,116
SF3A3,2,2.87,139
SF3A3,3,2.43,130
FMNL1-DT,1,-0.0265,81.4
FMNL1-DT,2,0.249,86.8
FMNL1-DT,3,1.15,105
HOMER2,1,0.0283,82.4
HOMER2,2,-0.516,71.6
HOMER2,3,-1.56,50.9
ADCY4,1,-0.77,66.6
ADCY4,2,3.25 (active),146
ADCY4,3,0.247,86.8
TNIP3,1,0.583,93.5
TNIP3,2,0.786,97.5
TNIP3,3,0.246,86.8
ETV4,1,1.27,107
ETV4,2,0.308,88
ETV4,3,1.09,104
TNNC1,1,-0.00127,81.9
TNNC1,2,0.988,102
TNNC1,3,-2.23,37.6
TACC1,1,-0.106,79.8
TACC1,2,-1.82,45.8
TACC1,3,-1.3,56
IRF2BP1,1,-0.316,75.6
IRF2BP1,2,-0.781,66.4
IRF2BP1,3,0.221,86.3

In a second layout: entries from further up
{"gene":"ADCY4","reagent":3,"total luciferase, z-score":0.247,"total luciferase, % of control":86.8}
{"gene":"TNIP3","reagent":1,"total luciferase, z-score":0.583,"total luciferase, % of control":93.5}
{"gene":"TNIP3","reagent":2,"total luciferase, z-score":0.786,"total luciferase, % of control":97.5}
{"gene":"TNIP3","reagent":3,"total luciferase, z-score":0.246,"total luciferase, % of control":86.8}
{"gene":"ETV4","reagent":1,"total luciferase, z-score":1.27,"total luciferase, % of control":107}
{"gene":"ETV4","reagent":2,"total luciferase, z-score":0.308,"total luciferase, % of control":88}
{"gene":"ETV4","reagent":3,"total luciferase, z-score":1.09,"total luciferase, % of control":104}
